Data on 19 molecules can be found in PubChem BioAssay AID212 (DTP/NCI, 2004).

The test system of this assay is BDF1 mice, colon carcinoma 38 sc, T/C %. Kind of assay: NCI In Vivo Anticancer Drug Screen. Data for tumor model Colon Carcinoma 38 (subcutaneous) in B6D2F1 (BDF1) mice. Conditions: T/C endpoint: median tumor weight (est.), higher T/C = larger tumour; for T/C: evaluated on day 20. In outline:
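Compound antitumor activity was assessed in mice carrying transplantable tumors. Survival or tumor size was recorded, and each value is the treated-group measurement divided by that of the vehicle-treated control group.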

[1] abbreviates: dose: 200.0 mg/kg/injection, schedule: Q07DX002 (ip), vehicle: Klucel (hydroxypropylcellulose) (HPC).
Where [2] appears, read: dose: 24.0 mg/kg/injection, schedule: Q07DX002 (ip), vehicle: Klucel (hydroxypropylcellulose) (HPC).
[3] abbreviates: dose: 400.0 mg/kg/injection, schedule: Q07DX002 (ip), vehicle: saline with Tween-80.
Setting [4] is: dose: 200.0 mg/kg/injection, schedule: Q07DX002 (ip), vehicle: saline with Tween-80.
The mark [5] stands for this setting: dose: 400.0 mg/kg/injection, schedule: Q07DX002 (ip), vehicle: saline.
[6] abbreviates: dose: 25.0 mg/kg/injection, schedule: Q07DX002 (ip), vehicle: Klucel (hydroxypropylcellulose) (HPC).
Setting [7] is: dose: 200.0 mg/kg/injection, schedule: Q07DX002 (ip), vehicle: saline.
[8] abbreviates: dose: 50.0 mg/kg/injection, schedule: Q07DX002 (ip), vehicle: saline with Tween-80.
The mark [9] stands for this setting: dose: 8.0 mg/kg/injection, schedule: Q07DX002 (ip), vehicle: water.

The list shows only some results of the screen, not a fair sample: it gathers tests that were run many times, whatever their T/C, doses with no T/C, and many T/C values between a quarter and a half above the control. Further doses and runs are listed elsewhere. T/C: endpoint of the treated group in % of that of the vehicle group. Schedule codes are those of the source, taken here to give the interval after Q, in days (D) or hours (H), and the number of doses after X. Some doses were run more than once; the values are given in rising order. Some T/C values are followed by the survivors on the day toxicity was checked, most often the fifth; without a count, all were alive then. Some entries give survivors of the animals treated and no T/C: the source files T/C as zero there, which appears to mark a toxic dose or a test without result, not a measured value. Survivors were counted at the toxicity check, usually on the fifth day, unless a day is given; later deaths do not show.

Take `CC[C@]1(O)C[C@H](OC2CC(N(C)C)C(OC3CC(O)C(O)C(C)O3)C(C)O2)c2c(cc3c(c2O)C(=O)c2c(O)ccc(O)c2C3=O)[C@H]1C(=O)OC` (stereo partly drawn): for the setting “dose: 2.0 mg/kg/injection, schedule: Q07DX003 (ip), vehicle: Klucel (hydroxypropylcellulose) (HPC)”, the T/C was 142 % of control.
`COc1ccc(Cl)[n+]([O-])n1`: the survivor count under setting [1] was 2 of 10 on day 20.
In the case of `CC(=O)O[C@@H]1CO[C@H]2O[C@H]3[C@@H](C(C=O)=C[C@H](O)[C@@H]4C5=C(C(C)C)CC[C@]5(C)CC[C@@]34C)[C@@]2(O)C1=O`, the survivor count under setting [2] is on record as 4 of 10 on day 20 and the survivor count (dose: 48.0 mg/kg/injection, schedule: Q07DX002 (ip), vehicle: Klucel (hydroxypropylcellulose) (HPC)) is given as 1 of 10 on day 20.
Consider `O=S(=O)(N=N/C=C1\C=CC=CN1O)c1cccs1`, for which, under setting [3], the survivor count was 3 of 10 on day 20.
Take `CC(=O)Oc1ccc[nH]c1=O`: the T/C under setting [4] is 128 % of control. The survivor count (dose: 1600.0 mg/kg/injection, schedule: Q07DX002 (ip), vehicle: saline with Tween-80) is recorded as 0 of 10 on day 20.
In the case of `CNC=O`, the survivor count was 0 of 10 on day 20 (dose: 3200.0 mg/kg/injection, schedule: Q07DX002 (ip), vehicle: saline) and 0 of 10 on day 20 (dose: 6400.0 mg/kg/injection, schedule: Q07DX002 (ip), vehicle: saline).
On to `O=c1[nH]c(=O)n([C@H]2CCCO2)cc1F`, for which, where the note is “dose: 20.0 mg/kg/injection, schedule: Q07DX003 (ip), vehicle: Klucel (hydroxypropylcellulose) (HPC)”, the T/C is 130 % of control. In addition, the survivor count (dose: 640.0 mg/kg/injection, schedule: Q07DX003 (ip), vehicle: Klucel (hydroxypropylcellulose) (HPC)) is 4 of 10.
In the case of `C[N+](C)(C)c1ncnc2c1ncn2C1CCCO1` (stereo not drawn), under setting [5], the survivor count is 0 of 10 on day 20.
With `C[C@]12CCC(=O)C(O)=C1CC[C@@H]1[C@@H]2CC[C@]2(C)C(=O)CC[C@@H]12`, the T/C under setting [6] is 125 % of control.
Take `N=C1CCCS1`: the survivor count under setting [7] is listed as 6 of 10 on day 20; the survivor count under setting [5] is 0 of 10 on day 20; the survivor count (dose: 800.0 mg/kg/injection, schedule: Q07DX002 (ip), vehicle: saline) is 0 of 10 on day 20.
As for `COCCCNC1=C(C#N)C(=O)NC(c2cccc([N+](=O)[O-])c2)S1` (stereo not drawn), the T/C is, setting by setting: (dose: 12.5 mg/kg/injection, schedule: Q07DX002 (ip), vehicle: saline with Tween-80) 128 % of control; (dose: 25.0 mg/kg/injection, schedule: Q07DX002 (ip), vehicle: saline with Tween-80) 130 % of control; under setting [8], 135 % of control; under setting [4], 134 and 144 % of control.
With `C=C(OP(=O)(OC)OC)Sc1ccccc1C`, the survivor count reads like this: (dose: 1.5 mg/kg/injection, schedule: Q07DX002 (ip), vehicle: Klucel (hydroxypropylcellulose) (HPC)) 6 of 10 on day 20; (dose: 3.0 mg/kg/injection, schedule: Q07DX002 (ip), vehicle: Klucel (hydroxypropylcellulose) (HPC)) 0 of 10 on day 20; (dose: 3.12 mg/kg/injection, schedule: Q07DX002 (ip), vehicle: Klucel (hydroxypropylcellulose) (HPC)) 0 of 10 on day 20; (dose: 6.0 mg/kg/injection, schedule: Q07DX002 (ip), vehicle: Klucel (hydroxypropylcellulose) (HPC)) 0 of 10 on day 20; (dose: 6.25 mg/kg/injection, schedule: Q07DX002 (ip), vehicle: Klucel (hydroxypropylcellulose) (HPC)) 0 of 10 on day 20; (dose: 12.0 mg/kg/injection, schedule: Q07DX002 (ip), vehicle: Klucel (hydroxypropylcellulose) (HPC)) 0 of 10 on day 20. Besides, the survivor count (dose: 12.5 mg/kg/injection, schedule: Q07DX002 (ip), vehicle: Klucel (hydroxypropylcellulose) (HPC)) is recorded as 0 of 10 on day 20; the survivor count under setting [2] is recorded as 0 of 10 on day 20; the survivor count under setting [6] is given as 0 of 10 on day 20; the survivor count (dose: 50.0 mg/kg/injection, schedule: Q07DX002 (ip), vehicle: Klucel (hydroxypropylcellulose) (HPC)) was 0 of 10 on day 20; the survivor count (dose: 100.0 mg/kg/injection, schedule: Q07DX002 (ip), vehicle: Klucel (hydroxypropylcellulose) (HPC)) is recorded as 0 of 10 on day 20; the survivor count under setting [1] is 0 of 10 on day 20. In addition, the survivor count (dose: 400.0 mg/kg/injection, schedule: Q07DX002 (ip), vehicle: Klucel (hydroxypropylcellulose) (HPC)) is listed as 0 of 10 on day 20.
Consider `CC(C)=CCC/C(C)=C/COc1ccc(/C=C2/C(=O)N(O)[C@@H](C)C(=O)N2O)cc1`, for which the T/C under setting [7] is 132 % of control [9 of 10 alive].
In the case of `Cc1c2cc[n+](C)cc2c(C)c2c1[nH]c1ccc(O)cc12`, the T/C (dose: 0.25 mg/kg/injection, schedule: Q07DX002 (ip), vehicle: water) was 143 % of control; the T/C (dose: 0.5 mg/kg/injection, schedule: Q07DX002 (ip), vehicle: water) is 137 % of control; the T/C (dose: 0.75 mg/kg/injection, schedule: Q07DX002 (ip), vehicle: water) was 130 % of control; the T/C (dose: 1.0 mg/kg/injection, schedule: Q07DX002 (ip), vehicle: water) was 129 % of control. In addition, the survivor count by setting is: (dose: 4.0 mg/kg/injection, schedule: Q07DX002 (ip), vehicle: water) 2 of 10 on day 20; (dose: 6.0 mg/kg/injection, schedule: Q07DX002 (ip), vehicle: water) 2 of 10 on day 20; under setting [9], 0 of 10 on day 20 and 5 of 10 on day 20; (dose: 10.0 mg/kg/injection, schedule: Q07DX002 (ip), vehicle: water) 0 of 10 on day 20; (dose: 12.0 mg/kg/injection, schedule: Q07DX002 (ip), vehicle: water) 0 of 10 on day 20.
As to `Nc1nc(N)c2c(ccc3c2ccn3Cc2cccc([N+](=O)[O-])c2)n1`, the survivor count under setting [8] is on record as 0 of 10 on day 20.
As to `c1cnc2ncncc2n1`, the T/C (dose: 12.5 mg/kg/injection, schedule: Q07DX002 (ip), vehicle: saline) is 140 % of control; the T/C (dose: 25.0 mg/kg/injection, schedule: Q07DX002 (ip), vehicle: saline) was 144 % of control; the T/C (dose: 50.0 mg/kg/injection, schedule: Q07DX002 (ip), vehicle: saline) was 137 % of control.
`CO[C@@]12[C@H](COC(N)=O)C3=C(C(=O)C(C)=C(N)C3=O)N1C[C@@H]1N[C@@H]12`: the survivor count was 0 of 10 on day 20 and 5 of 10 on day 20 (dose: 8.0 mg/kg/injection, schedule: Q07DX002 (ip), vehicle: saline); 1 of 10 on day 20 under setting [9]; 0 of 10 on day 20 (dose: 60.0 mg/kg/injection, schedule: Q07DX002 (oral), vehicle: water).
On to `CO[C@@H]1[C@H](O)CC[C@]2(CO2)[C@H]1[C@@]1(C)O[C@@H]1CC=C(C)C`, for which the T/C (dose: 100.0 mg/kg/injection, schedule: Q07DX002 (ip), vehicle: saline with Tween-80) was 126 % of control.
Consider `COc1cc(C(C)(C)C)cc(OC)c1C(O)(c1c(OC)cc(C(C)(C)C)cc1OC)c1c(OC)cc(C(C)(C)C)cc1OC`, for which the survivor count under setting [4] was 4 of 10 on day 20 and the survivor count under setting [3] was 0 of 10 on day 20.
